From PMC12283963

Amino acid sequences for entries named in this document (tags omitted). Residues count along the entry.
UniProt Q8C255, residues 32-459: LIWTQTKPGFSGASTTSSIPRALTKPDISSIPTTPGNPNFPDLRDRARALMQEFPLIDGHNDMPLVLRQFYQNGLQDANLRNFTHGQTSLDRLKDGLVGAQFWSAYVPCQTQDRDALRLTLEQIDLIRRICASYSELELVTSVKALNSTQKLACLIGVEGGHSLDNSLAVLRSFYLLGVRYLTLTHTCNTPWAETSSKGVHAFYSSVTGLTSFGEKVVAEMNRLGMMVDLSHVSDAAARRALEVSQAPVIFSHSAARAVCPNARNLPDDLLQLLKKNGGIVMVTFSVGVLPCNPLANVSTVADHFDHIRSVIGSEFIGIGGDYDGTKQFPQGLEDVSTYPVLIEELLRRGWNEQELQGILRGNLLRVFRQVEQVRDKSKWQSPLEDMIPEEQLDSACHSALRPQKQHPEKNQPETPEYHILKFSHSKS
UniProt P08152: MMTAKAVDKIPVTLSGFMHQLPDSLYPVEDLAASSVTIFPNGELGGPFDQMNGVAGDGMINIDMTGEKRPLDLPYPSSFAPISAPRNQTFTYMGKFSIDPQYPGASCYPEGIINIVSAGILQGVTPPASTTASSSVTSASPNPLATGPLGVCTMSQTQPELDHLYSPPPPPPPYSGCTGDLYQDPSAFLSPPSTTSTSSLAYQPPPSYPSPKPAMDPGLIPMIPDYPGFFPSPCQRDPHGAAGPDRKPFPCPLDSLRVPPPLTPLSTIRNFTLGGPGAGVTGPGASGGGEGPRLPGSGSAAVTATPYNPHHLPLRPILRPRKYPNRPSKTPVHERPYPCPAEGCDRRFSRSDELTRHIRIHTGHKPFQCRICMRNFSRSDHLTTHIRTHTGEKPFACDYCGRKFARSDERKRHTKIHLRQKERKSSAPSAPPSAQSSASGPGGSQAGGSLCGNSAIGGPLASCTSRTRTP
UniProt P63280: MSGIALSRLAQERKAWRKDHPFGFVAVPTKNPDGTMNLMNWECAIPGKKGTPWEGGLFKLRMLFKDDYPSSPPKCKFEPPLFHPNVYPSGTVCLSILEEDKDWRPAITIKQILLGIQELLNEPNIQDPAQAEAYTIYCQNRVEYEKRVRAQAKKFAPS
UniProt Q80TP3: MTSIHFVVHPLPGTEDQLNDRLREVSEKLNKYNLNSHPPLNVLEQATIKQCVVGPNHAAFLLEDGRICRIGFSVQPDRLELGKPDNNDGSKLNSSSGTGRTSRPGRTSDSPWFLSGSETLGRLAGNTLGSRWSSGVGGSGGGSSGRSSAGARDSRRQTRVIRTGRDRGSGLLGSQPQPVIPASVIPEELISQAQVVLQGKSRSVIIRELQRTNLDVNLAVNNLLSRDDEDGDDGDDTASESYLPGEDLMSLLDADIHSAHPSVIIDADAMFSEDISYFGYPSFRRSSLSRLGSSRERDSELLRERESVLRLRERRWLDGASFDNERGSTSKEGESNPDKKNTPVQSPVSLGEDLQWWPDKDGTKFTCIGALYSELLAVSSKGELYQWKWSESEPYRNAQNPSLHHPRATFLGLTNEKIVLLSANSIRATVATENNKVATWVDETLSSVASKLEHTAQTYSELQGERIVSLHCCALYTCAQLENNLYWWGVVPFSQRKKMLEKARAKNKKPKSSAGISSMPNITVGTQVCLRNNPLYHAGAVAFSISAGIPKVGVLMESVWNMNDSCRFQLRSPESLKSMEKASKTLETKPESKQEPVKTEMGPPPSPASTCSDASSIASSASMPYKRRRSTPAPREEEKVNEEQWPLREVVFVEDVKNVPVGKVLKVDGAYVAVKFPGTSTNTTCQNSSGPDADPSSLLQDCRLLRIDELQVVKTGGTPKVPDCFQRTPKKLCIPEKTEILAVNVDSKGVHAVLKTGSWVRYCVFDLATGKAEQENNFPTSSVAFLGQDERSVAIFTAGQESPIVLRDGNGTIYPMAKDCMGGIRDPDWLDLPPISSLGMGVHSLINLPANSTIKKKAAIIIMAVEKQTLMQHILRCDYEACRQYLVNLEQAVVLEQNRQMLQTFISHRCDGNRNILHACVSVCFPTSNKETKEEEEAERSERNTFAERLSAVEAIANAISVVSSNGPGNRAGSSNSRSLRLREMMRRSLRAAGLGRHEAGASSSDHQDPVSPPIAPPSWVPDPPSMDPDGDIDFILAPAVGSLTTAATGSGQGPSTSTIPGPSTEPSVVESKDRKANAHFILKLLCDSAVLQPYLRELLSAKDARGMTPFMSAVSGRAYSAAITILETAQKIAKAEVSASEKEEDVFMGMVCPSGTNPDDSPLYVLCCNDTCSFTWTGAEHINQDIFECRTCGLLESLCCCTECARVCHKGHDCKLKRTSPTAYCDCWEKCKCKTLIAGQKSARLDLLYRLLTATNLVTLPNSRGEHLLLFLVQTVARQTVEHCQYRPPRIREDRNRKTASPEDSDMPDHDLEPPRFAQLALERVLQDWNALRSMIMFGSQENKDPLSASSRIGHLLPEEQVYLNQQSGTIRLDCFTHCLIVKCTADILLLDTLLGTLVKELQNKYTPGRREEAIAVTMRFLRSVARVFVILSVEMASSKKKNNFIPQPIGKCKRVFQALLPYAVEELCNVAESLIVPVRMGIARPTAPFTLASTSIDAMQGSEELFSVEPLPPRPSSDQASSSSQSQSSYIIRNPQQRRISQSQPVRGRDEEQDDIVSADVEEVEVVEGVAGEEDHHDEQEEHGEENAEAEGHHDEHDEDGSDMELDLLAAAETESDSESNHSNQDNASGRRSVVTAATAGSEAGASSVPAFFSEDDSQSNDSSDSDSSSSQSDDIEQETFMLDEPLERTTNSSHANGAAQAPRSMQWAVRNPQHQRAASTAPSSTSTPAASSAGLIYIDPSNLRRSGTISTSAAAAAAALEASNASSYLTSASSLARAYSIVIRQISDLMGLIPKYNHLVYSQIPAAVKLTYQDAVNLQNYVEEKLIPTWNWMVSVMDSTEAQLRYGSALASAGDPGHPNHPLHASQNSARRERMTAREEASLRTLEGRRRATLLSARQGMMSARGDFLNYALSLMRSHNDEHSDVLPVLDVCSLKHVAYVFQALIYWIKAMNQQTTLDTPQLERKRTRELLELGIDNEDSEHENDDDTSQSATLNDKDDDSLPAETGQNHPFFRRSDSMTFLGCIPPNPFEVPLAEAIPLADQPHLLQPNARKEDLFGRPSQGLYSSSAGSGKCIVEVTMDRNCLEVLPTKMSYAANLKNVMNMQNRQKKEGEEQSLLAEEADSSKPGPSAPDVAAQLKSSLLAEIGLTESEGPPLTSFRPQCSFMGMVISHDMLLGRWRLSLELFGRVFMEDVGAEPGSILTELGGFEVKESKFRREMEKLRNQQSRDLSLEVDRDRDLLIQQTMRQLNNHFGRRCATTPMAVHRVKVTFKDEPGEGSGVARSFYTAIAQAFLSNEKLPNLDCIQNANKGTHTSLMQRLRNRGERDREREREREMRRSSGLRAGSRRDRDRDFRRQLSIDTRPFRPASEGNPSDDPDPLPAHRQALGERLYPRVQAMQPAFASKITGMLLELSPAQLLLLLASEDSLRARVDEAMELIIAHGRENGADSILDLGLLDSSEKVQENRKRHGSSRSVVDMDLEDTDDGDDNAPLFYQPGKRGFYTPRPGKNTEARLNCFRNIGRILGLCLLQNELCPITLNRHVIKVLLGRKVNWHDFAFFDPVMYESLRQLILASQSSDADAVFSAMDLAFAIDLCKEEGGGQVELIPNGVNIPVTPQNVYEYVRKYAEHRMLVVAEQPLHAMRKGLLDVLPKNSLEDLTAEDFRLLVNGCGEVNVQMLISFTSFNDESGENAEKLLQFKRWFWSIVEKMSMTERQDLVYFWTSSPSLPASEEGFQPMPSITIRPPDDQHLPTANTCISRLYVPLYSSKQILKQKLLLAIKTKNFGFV

B1: MAP3K3 (protein, UniProt Q61084 1-626)
chain: MDEQEALDSIMKDLVALQMSRRTRLSGYETMKNKDTGHPNRQSDVRIKFEHNGERRIIAFSRPVRYEDVEHKVTTVFGQPLDLHYMNNELSILLKNQDDLDKAIDILDRSSSMKSLRILLLSQDRNHTSSSPHSGVSRQVRIKPSQSAGDINTIYQAPEPRSRHLSVSSQNPGRSSPPPGYVPERQQHIARQGSYTSINSEGEFIPETSEQCMLDPLSSAENSLSGSCQSLDRSADSPSFRKSQMSRARSFPDNRKECSDRETQLYDKGVKGGTYPRRYHVSVHHKDYNDGRRTFPRIRRHQGNLFTLVPSSRSLSTNGENMGVAVQYLDPRGRLRSADSENALTVQERNVPTKSPSAPINWRRGKLLGQGAFGRVYLCYDVDTGRELASKQVQFDPDSPETSKEVSALECEIQLLKNLQHERIVQYYGCLRDRAEKILTIFMEYMPGGSVKDQLKAYGALTESVTRKYTRQILEGMSYLHSNMIVHRDIKGANILRDSAGNVKLGDFGASKRLQTICMSGTGIRSVTGTPYWMSPEVISGEGYGRKADVWSLGCTVVEMLTEKPPWAEYEAMAAIFKIATQPTNPQLPSHISEHGRDFLRRIFVEARQRPSAEELLTHHFAQLVY
B2: Rmnd5a (protein, UniProt Q80YQ8 1-391)
chain: MDQCVTVERELEKVLHKFSGYGQLCERGLEELIDYTGGLKHEILQSHGQDAELSGTLSLVLTQCCKRIKDTVQKLASDHKDIHSSVSRVGKAIDKNFDSDISSVGIDGCWQADSQRLLNEVMVEHFFRQGMLDVAEELCQESGLSVDPSQKEPFVELNRILEALKVRVLRPALEWAVSNREMLIAQNSSLEFKLHRLYFISLLMGGTTNQREALQYAKNFQPFALNHQKDIQVLMGSLVYLRQGIENSPYVHLLDANQWADICDIFTRDACALLGLSVESPLSVSFSAGCVALPALINIKAVIEQRQCTGVWNQKDELPIEVDLGKKCWYHSIFACPILRQQTTDNNPPMKLVCGHIISRDALNKMFNGSKLKCPYCPMEQSPGDAKQIFF
B3: Dtx2 (protein, UniProt Q8R3P2 1-619)
chain: MAMAPSSSLPQVYPSHVVVAVWEWQDGLGIWHPYSATVCSFIEQHFVRQRGQHFGLGSLAHSIPLGQADPSLAPYIIDLPSWTQFRQNTGTMRSVRRHLFSQNSAPGQGIVWEWLGDDGSWVAYEARICDYLEQQVARGIQVVDLAPLGYNYTVNYATLTQTNKTSSFCRSVRRQVGPVYPVTSDIAVPRQMGLICFCQQCLHGSGTGPVSGRYRHSMTNLPAYPAPQAPHRTTTVSGAHQAFAPYNKPSLSGARSAPRLNTTNPWAAAPPVAGNQSLFHSSLSHLGPQLLPSGPSTSSGASASFPSGPSSSSPGSAPTTVPVQMPKASRVQQALAGMTSVLSAIGLPVCLSRAPRPTGPPASRPASKSHSSVKRLRKMSVKEGAPKPEPEQVIRKYTEELKVAPEEDCIICMEKLAVASGYSDMTDSKALGPMVVGRLTKCSHAFHLLCLLAMYCNGNKDGSLQCPSCKTIYGEKTGTQPWGKMEVFRFQMSLPGHEDCGTILIVYNIPHGIQGPEHPSPGKPFTARGFPRQCYLPDSPQGRKVLELLKVAWKRRLIFTVGTSSTTGETDTVVWNEIHHKTEMDRNVTGHGYPDPNYLQNVLAELAAQGVTEDCLEQQ
B4: Herc4 (protein, UniProt Q6PAV2 1-1057)
chain: MLCWGNASYGQLGLGGIDEEIVLEPRRSDFFVNKKVRDVGCGLRHTVFVLDDGTVYTCGCNDLGQLGHEKSRKKPEQVVALDAQNIVAVACGEAHTLALNDKGQVYAWGLDSDGQLGLQGSEECIRVPRNIKSLSDIQIVQVACGYYHSLALSKASEVFCWGQNKYGQLGLGIDCQKQTSPQLIKSLLGIPFMQVAAGGAHSFVLTLSGAIFGWGRNKFGQLGLNDENDRYVPNLLKSLRSQKIVYICCGEDHTAALTKEGGVFTFGAGGYGQLGHNSTSHEINPRKVFELMGSIVTQVACGRQHTSAFVPSSGRIYSFGLGGNGQLGTGSTSNRKSPFTVKGNWFSYNGQCPQDIGSEDYFCVKRIFSGGDQSFSHYSSPQNCGPPDDFRCSDPSKQIWTVNEALIQKWLSYPSGRFPVEIANEIDGTFSSSGCLNGSFLAISNDDHYRTGTRFSGVDMNAARLLFHKLIQPDHPQISQQVAASLEKNLIPKLTSSLPDVEALRFYLTLPECPLMSDCNNFTTIAIPFGTALVNLEKAPLKVLENWWSVLEPPLFLKIVELFKEVVVHLLKLYKIGIPPSERRIFNSFLHTALKVLEILHRVNEKTGQLIQYDKFYIHEVQELIDIRNDYINWVQQQAYGVDVSHGVTELADIPVTICTYPFVFDAQAKTTLLQTDAVLQMQMAIDQAHRQNVSSLFLPVIESVNPCLILVVRRENIVGDAMEVLRKTKNIDYKKPLKVIFVGEDAVDAGGVRKEFFLLIMRELLDPKYGMFRYYEDSRLIWFSDKTFEDSDLFHLIGVICGLAIYNFTIVDLHFPLALYKKLLKRKPSLDDLKELMPAVGRSMQQLLDYPEDDIEETFCLNFTITVENFGATEVKELVLNGADTAVNRQNRQEFVDAYVDYIFNKSVASLFDAFHAGFHKVCGGKVLLLFQPNELQAMVIGNTNYDWKELEKNTEYKGEYWADHPTIKIFWEVFHELPLEKKKQFLLFLTGSDRIPILGMKSLKLVIQSTGGGESYLPVSHTCFNLLDLPKYTEKETLRCKLIQAIDHNEGFSLI
B5: Znf598 (protein, UniProt Q80YR4 1-908)
chain: MAAAAGAEGRRAALEAVAAPERGGGSCVLCCGDLEATALGRCDHPVCYRCSTKMRVLCEQRYCAVCREELRQVVFGKKLPAFALIPIHQLQHEKKYDIYFADGKVFALYRQLLQHECPRCPHLPPFSLFGDLEQHMRKQHELFCCKLCLKHLKIFTYERKWYSRKDLARHRMQGDPDDTSHRGHPLCKFCDERYLDNDELLKHLRRDHYFCHFCDSDGAQDYYSDYAYLREHFREKHFLCEEGRCSTEQFTHAFRTEIDLKAHKTACHSRSRAEARQNRQIDLQFSFAPRHSRRSEGVVSGEDYEEVDRYNRQGRAGRASGRGAQQNRRGSWRYKREEEDREVAAAIRASVAAQQQEETQRVEDREEGSRPKKEEAAARVPEEPRGHRRLPRAQGEGSGSKEASANGPVSQEAFPATGPGPVVALSNTLPPPSPELKEEDFPSLCASTSSCCTAVTPGSVGLALAYPGPPRGKNTFQEEDFPALVSSAPKPSSAPSSLISAWNSGCSKKGNLPTPGSQAVVGGSQPPRKAGKGSRGGRKGGPAPVDEEDSGGLTVQGLRSVPTTVAVSSLLAPATNQSSAKVGKKKKVGSEKPGATSSPLLPPDHTPKPSGAEQVLEAPLSKAEVPVTIVVNGHSEGSALVRSAPKEPPGLPRPLGPLPCPIPQEDFPALGGPCPPRMPPPPGFSTVVLLKGTPPPPPPPPGLVPPISKPPPGFSSLLPSSHSACAPSPTTTTTTTTTTKTPGLAPTPQAYLVPENFRERNLQLIQSIKDFLQSDEACFSKFKSHSGEFRQGMISAAQYYKSCRDLLGESFQKIFSELLALLPDTAKQQELLSAHTDFCSREKPPNSRSKRNKKNVWQTSTQQLGLDCCVCPTCQQVLAHGDVSSHQALHAARDDDFPSLQAIARIIT
B6: MAP3K7 (protein, UniProt Q62073 1-579)
chain: MSTASAASSSSSSSASEMIEAPSQVLNFEEIDYKEIEVEEVVGRGAFGVVCKAKWRAKDVAIKQIESESERKAFIVELRQLSRVNHPNIVKLYGACLNPVCLVMEYAEGGSLYNVLHGAEPLPYYTAAHAMSWCLQCSQGVAYLHSMQPKALIHRDLKPPNLLLVAGGTVLKICDFGTACDIQTHMTNNKGSAAWMAPEVFEGSNYSEKCDVFSWGIILWEVITRRKPFDEIGGPAFRIMWAVHNGTRPPLIKNLPKPIESLMTRCWSKDPSQRPSMEEIVKIMTHLMRYFPGADEPLQYPCQYSDEGQSNSATSTGSFMDIASTNTSNKSDTNMEQVPATNDTIKRLESKLLKNQAKQQSESGRLSLGASRGSSVESLPPTSEGKRMSADMSEIEARIVATAGNGQPRRRSIQDLTVTGTEPGQVSSRSSSPSVRMITTSGPTSEKPARSHPWTPDDSTDTNGSDNSIPMAYLTLDHQLQPLAPCPNSKESMAVFEQHCKMAQEYMKVQTEIALLLQRKQELVAELDQDEKDQQNTSRLVQEHKKLLDENKSLSTYYQQCKKQLEVIRSQQQKRQGTS

target: Dipeptidase-2 (DPEP2) (mouse (endogenous in BMDMs)) (UniProt Q8C255); test: affinity purification with mass spectrometry; anti-DPEP2 antibodies (Proteintech) and Protein G beads on BMDM lysate; IgG antibodies as negative control; SDS/PAGE, silver staining, LC-MS/MS

binding, binds:
B1
B2
B3
B4
B5
B6

target: Dipeptidase-2 (DPEP2) (mouse (endogenous in BMDMs)) (UniProt Q8C255); test: as above; remark: another data set of the same source

binding, binds:
Egr2 (from UniProt P08152 1-470)
Ube2i (from UniProt P63280 1-158)
Ubr5 (from UniProt Q80TP3 1-2792)
MAP3K20 (from UniProt Q9ESL4 1-802)

No constants are given. Whether binding was seen depends on the method and setting. Binding seen in cells or lysates may run through a third protein. These calls come from enrichment with a bait or labelling near it, and not all partners need be listed.
